Test results published in patent US20020142016A1, “Stable skin care product containing a retinoid and a retinoid booster system in a dual compartment package” (priority 2000, published 2002).

Columns and labels:
TGase I = assay: Transglutaminase (TGase I ELISA) assay in cultured keratinocytes with retinol; type: cell-based; conditions: Keratinocyte; concentration of booster which, with constant retinol 10^-7 M, inhibits TGase by 50%; read-out: Overall TG (IC 50)
[1] = system: retinoic acid oxidation (cytochrome P450 systems); assay: Assay for NADPH dependent retinoic acid oxidation in rat liver microsomes; type: biochemical; conditions: Sprague Dawley, pH 7.4, probe retinoic acid, 10 μM
Experimental: The resulting homogenate was successively centrifuged for 30 min. at 10,000 g, 30 min. at 20,000 g, and 15 min. at 30,000 g, and the resulting supernatant was ultracentrifuged for 80 min. at 105,000 g. […] Protein concentrations were determined as described above.
Prepare the following assay buffer and store at 4° C.: 0.1 M PO4/0.1 mM EDTA/ 0.5 mM MgCl2, pH 7.4. On the day of the assay, prepare a 60 mM NADPH solution in buffer.
Quench with acidified ethanol/ BHT and extract with hexane/BHT as described above.
The chromatography instrumentation consisted of a Waters 600 gradient controller/pump, a Waters 996 Photodiode Array detector and a Waters 474 Scanning Fluorescence detector. Two HPLC protocols were used for retinoid analysis. […] The eluate was monitored for absorbance at 325nm and fluorescence at 325ex/480em. […] 189, 136-145 (1990). This system consisted of a 20 min. linear gradient from 68:32 (v/v) methanol/water containing 10 mM ammonium acetate to 4:1 (v/v) methanol:dichloromethane followed by a 5 min. hold at a flow rate of 1 mL/min.

IC50 (TGase I)	inhibition at 60 min, 100 µM [1]	SMILES
278 nM		Clc1ccc(COC(Cn2ccnc2)c2ccc(Cl)cc2Cl)c(Cl)c1 (centres unmarked) [Miconazole]
	85%	Clc1ccccc1C(c1ccccc1)(c1ccccc1)n1ccnc1 [Clotrimazole]
